Reference: patent publication US20240360165A1, “INHIBITORS OF CYCLIN DEPENDENT KINASE 7 (CDK7)” (Syros Pharmaceuticals, Inc., priority 2016, published 2024)
Like-named read-outs stand apart in the source and are kept apart here. The structures given here were assigned with low confidence; some may be wrong. Each block holds one compound with its values, some of them ahead of it.

The chains behind the UniProt entries cited, without tags or fusion partners. Residues count along the entry.
UniProt P50613, whole entry: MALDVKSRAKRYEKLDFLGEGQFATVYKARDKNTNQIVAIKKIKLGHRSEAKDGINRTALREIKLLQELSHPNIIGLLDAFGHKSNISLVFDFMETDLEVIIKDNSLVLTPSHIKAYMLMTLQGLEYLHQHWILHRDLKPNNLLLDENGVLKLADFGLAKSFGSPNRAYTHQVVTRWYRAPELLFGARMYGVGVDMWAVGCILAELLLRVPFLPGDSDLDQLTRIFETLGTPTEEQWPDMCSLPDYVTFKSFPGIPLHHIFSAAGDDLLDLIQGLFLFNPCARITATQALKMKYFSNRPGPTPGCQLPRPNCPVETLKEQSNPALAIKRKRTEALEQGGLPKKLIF
UniProt P50750, whole entry: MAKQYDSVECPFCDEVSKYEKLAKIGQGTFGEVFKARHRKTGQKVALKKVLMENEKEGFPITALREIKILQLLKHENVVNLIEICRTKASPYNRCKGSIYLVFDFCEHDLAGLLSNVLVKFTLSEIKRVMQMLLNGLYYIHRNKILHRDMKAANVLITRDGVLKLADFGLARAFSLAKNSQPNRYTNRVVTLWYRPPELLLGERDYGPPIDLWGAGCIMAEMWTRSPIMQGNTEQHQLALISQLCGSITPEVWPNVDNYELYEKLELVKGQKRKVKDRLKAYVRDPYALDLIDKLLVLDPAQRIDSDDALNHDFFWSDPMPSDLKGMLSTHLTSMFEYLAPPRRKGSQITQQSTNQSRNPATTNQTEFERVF
UniProt Q9NYV4, 686-1082 limits assumed: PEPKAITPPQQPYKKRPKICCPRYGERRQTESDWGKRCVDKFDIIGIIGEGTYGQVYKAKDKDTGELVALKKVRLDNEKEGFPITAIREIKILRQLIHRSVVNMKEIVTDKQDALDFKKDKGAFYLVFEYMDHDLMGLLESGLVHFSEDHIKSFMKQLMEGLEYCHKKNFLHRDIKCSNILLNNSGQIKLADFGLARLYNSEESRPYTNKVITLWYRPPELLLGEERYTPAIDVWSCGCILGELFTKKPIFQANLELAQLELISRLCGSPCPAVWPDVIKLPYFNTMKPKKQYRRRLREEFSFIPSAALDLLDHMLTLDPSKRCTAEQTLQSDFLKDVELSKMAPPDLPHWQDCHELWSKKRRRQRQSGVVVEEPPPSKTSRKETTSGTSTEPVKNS
UniProt O75909, whole entry partner: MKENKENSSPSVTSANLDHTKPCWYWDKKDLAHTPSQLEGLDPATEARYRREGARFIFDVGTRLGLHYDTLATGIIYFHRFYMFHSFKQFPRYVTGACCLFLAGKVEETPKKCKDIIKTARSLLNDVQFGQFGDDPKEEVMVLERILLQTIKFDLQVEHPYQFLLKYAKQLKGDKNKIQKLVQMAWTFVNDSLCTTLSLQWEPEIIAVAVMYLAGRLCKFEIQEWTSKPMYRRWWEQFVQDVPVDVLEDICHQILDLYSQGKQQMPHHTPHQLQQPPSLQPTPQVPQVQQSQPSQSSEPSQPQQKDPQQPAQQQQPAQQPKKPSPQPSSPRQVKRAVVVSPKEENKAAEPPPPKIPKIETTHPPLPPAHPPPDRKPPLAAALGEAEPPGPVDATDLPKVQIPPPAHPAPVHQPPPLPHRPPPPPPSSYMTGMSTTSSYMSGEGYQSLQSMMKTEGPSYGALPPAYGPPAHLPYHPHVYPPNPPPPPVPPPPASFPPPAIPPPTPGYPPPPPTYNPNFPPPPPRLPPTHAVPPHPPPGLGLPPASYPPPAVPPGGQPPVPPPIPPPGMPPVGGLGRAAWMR
UniProt P51948, whole entry partner: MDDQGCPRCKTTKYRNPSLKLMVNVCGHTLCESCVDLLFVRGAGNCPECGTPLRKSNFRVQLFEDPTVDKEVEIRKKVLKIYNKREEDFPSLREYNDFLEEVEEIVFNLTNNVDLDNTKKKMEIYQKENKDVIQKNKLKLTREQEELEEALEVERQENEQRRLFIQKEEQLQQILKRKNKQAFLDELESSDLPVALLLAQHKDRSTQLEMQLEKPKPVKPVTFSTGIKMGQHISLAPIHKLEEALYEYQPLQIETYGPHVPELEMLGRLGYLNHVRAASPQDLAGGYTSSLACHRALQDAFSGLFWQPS
UniProt O60563, whole entry partner: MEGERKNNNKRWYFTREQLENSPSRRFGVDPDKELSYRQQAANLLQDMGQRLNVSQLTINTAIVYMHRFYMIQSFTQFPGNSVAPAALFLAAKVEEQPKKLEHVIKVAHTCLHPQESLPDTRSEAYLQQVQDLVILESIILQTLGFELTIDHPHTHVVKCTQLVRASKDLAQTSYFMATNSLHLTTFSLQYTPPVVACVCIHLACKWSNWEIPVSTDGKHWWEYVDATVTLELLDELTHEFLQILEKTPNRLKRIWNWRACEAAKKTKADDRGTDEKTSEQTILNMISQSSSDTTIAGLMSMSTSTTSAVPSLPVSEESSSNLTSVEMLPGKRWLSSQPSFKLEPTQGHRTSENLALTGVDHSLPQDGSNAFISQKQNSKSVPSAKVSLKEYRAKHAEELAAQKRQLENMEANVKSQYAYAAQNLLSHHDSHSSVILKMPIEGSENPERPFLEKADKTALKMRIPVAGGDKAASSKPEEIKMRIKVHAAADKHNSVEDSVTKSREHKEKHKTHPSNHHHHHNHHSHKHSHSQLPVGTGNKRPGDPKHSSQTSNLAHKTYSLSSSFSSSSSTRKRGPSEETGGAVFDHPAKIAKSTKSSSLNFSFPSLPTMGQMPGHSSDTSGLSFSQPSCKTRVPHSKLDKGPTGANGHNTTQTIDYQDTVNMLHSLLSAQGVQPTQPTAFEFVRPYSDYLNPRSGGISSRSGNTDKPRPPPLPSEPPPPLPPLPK
UniProt P51946, whole entry partner: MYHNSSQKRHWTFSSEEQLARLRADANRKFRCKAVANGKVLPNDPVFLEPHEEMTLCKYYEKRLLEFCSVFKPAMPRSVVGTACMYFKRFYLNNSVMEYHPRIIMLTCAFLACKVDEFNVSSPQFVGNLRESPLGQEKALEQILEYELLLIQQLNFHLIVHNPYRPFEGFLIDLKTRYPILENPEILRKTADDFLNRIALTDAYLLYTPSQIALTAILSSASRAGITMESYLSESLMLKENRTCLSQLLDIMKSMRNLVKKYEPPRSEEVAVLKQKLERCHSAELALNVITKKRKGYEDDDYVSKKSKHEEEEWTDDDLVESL

Experiments:
[1] = target: CDK7/Cyclin H/MAT1 complex (Homo sapiens, UniProt P50613); test: CDK7 inhibition assay (Caliper/LabChip EZ Reader kinase assay); settings: read-out: CDK7, Table 1, CDK7/Cyclin H/MAT1 6 nM, ATP 2 mM, 35 min at 27° C.
CDK9/Cyclin T1 complex = CDK9/Cyclin T1 complex (Homo sapiens, UniProt P50750); test: CDK9 inhibition assay (Caliper/LabChip EZ Reader kinase assay); settings: read-out: CDK9, Table 1, CDK9/Cyclin T1 8 nM, ATP 2 mM, 15 min at 27° C.
[2] = target: CDK12 (aa686-1082)/Cyclin K complex (Homo sapiens, UniProt Q9NYV4); test: CDK12 inhibition assay (Caliper/LabChip EZ Reader kinase assay); settings: read-out: CDK12, Table 1, CDK12 (aa686-1082)/Cyclin K 50 nM, ATP 2 mM, 3 hr at 27° C.
A673 cells = test: Inhibition of proliferation of A673 cells (CyQUANT, 72 hour)
CDK2/Cyclin E1 complex = CDK2/Cyclin E1 complex (Homo sapiens, UniProt P24941); test: CDK2 inhibition assay (Caliper/LabChip EZ Reader kinase assay); settings: read-out: CDK2, Table 1, CDK2/Cyclin E1 0.5 nM, ATP 2 mM, 35 min at 27° C.
HCC70 cells = test: Inhibition of proliferation of HCC70 cells (CyQUANT Direct Cell Proliferation Assay, 72 hour); settings: read-out: Inhibition of Proliferation of HCC70 Cells (calculated IC50)
[3] = read-out: Inhibition of Proliferation of A673 Cells (calculated IC50)

Structure (SMILES): O=S1(=O)CCN(c2cccc3c(-c4nc(N[C@H]5CCCNC5)ncc4Cl)c[nH]c23)CC1 [Compound 196, 5-chloro-4-[7-(1,1-dioxo-1,4-thiazinan-4-yl)-1H-indol-3-yl]-N-[(3S)-3-piperidyl]pyrimidin-2-amine]
- IC50 [1]: 20 to 200 nM
- IC50 (CDK9/Cyclin T1 complex): 200 to 5000 nM
- IC50 [2]: 200 to 5000 nM

Structure (SMILES): O=C(c1ccc2c(-c3nc(N[C@H]4CCCNC4)ncc3C(F)(F)F)c[nH]c2c1)N1CCCC1 [Compound 278, [3-[2-[[(3S)-3-piperidyl]amino]-5-(trifluoromethyl)pyrimidin-4-yl]-1H-indol-6-yl]-Pyrrolidin-1-yl-methanone]
- IC50 [1]: < 20 nM
- IC50 (CDK9/Cyclin T1 complex): 200 to 5000 nM
- IC50 [2]: 200 to 5000 nM
- IC50 (A673 cells; [3]): < 20 nM

Structure (SMILES): FC(F)n1ccc(-c2ccc3c(-c4nc(N[C@H]5CCCNC5)ncc4C(F)(F)F)c[nH]c3c2)n1 [Compound 289, 4-[6-[1-(difluoromethyl)pyrazol-3-yl]-1H-indol-3-yl]-N-[(3S)-3-piperidyl]-5-(trifluoromethyl) pyrimidin-2-amine]
- IC50 [1]: 20 to 200 nM
- IC50 (CDK9/Cyclin T1 complex): 200 to 5000 nM
- IC50 [2]: 20 to 200 nM

Structure (SMILES): FC(F)n1cc(-c2ccc3c(-c4nc(N[C@H]5CCCNC5)ncc4C(F)(F)F)c[nH]c3c2)cn1 [Compound 290, 4-[6-[1-(difluoromethyl)pyrazol-4-yl]-1H-indol-3-yl]-N-[(3S)-3-piperidyl]-5-(trifluoromethyl) pyrimidin-2-amine]
- IC50 [1]: 20 to 200 nM
- IC50 (CDK9/Cyclin T1 complex): > 5000 nM
- IC50 [2]: 200 to 5000 nM
- IC50 (CDK2/Cyclin E1 complex): > 5000 nM

Structure (SMILES): O=C1CCN(C(=O)c2ccc3c(-c4nc(N[C@H]5CCCNC5)ncc4C(F)(F)F)c[nH]c3c2)C1 [Compound 302, 1-[3-[2-[[(3S)-3-piperidyl]amino]-5-(trifluoromethyl)pyrimidin-4-yl]-1H-indole-6-carbonyl] pyrrolidin-3-one]
- IC50 [1]: < 20 nM
- IC50 (CDK9/Cyclin T1 complex): 200 to 5000 nM
- IC50 [2]: 20 to 200 nM
- IC50 (A673 cells; [3]): < 20 nM
- IC50 (HCC70 cells): < 100 nM

Structure (SMILES): CC(C)S(=O)(=O)c1ccc2c(-c3nc(N[C@H]4CCCNC4)ncc3C(F)(F)F)c[nH]c2c1 [Compound 346, 4-(6-isopropylsulfonyl-1H-indol-3-yl)-N-[(3S)-3-piperidyl]-5-(trifluoromethyl) pyrimidin-2-amine]
- IC50 [1]: < 20 nM
- IC50 (CDK9/Cyclin T1 complex): 200 to 5000 nM
- IC50 [2]: 20 to 200 nM
- IC50 (A673 cells; [3]): 20 to 200 nM
- IC50 (HCC70 cells): < 100 nM

- IC50 [1]: < 20 nM
- IC50 (CDK9/Cyclin T1 complex): 200 to 5000 nM
- IC50 [2]: 20 to 200 nM
- IC50 (CDK2/Cyclin E1 complex): 200 to 5000 nM
Structure (SMILES): CN1CCC[C@H](Nc2ncc(C(F)(F)F)c(-c3c[nH]c4cc(S(C)(=O)=O)ccc34)n2)C1 [Compound 364, N-[(3S)-1-methyl-3-piperidyl]-4-(6-methylsulfonyl-1H-indol-3-yl)-5-(trifluoromethyl)pyrimidin-2-amine]
- IC50 (A673 cells; [3]): < 20 nM

Structure (SMILES): O=S(=O)(CF)c1ccc2c(-c3nc(N[C@H]4CCCNC4)ncc3C(F)(F)F)c[nH]c2c1 [Compound 365, 4-[6-(fluoromethylsulfonyl)-1H-indol-3-yl]-N-[(3S)-3-piperidyl]-5-(trifluoromethyl)pyrimidin-2-amine]
- IC50 [1]: 20 to 200 nM
- IC50 (CDK9/Cyclin T1 complex): > 5000 nM
- IC50 [2]: > 5000 nM
- IC50 (CDK2/Cyclin E1 complex): > 5000 nM
- IC50 (A673 cells; [3]): 200 to 5000 nM

Structure (SMILES): O=S(=O)(c1ccc2c(-c3nc(N[C@H]4CCCNC4)ncc3C(F)(F)F)c[nH]c2c1)C(F)F [Compound 375, 4-[6-(difluoromethylsulfonyl)-1H-indol-3-yl]-N-[(3S)-3-piperidyl]-5-(trifluoromethyl)pyrimidin-2-amine]
- IC50 ([1]; tested form: formate): 200 to 5000 nM
- IC50 (CDK9/Cyclin T1 complex; tested form: formate): 200 to 5000 nM
- IC50 ([2]; tested form: formate): > 5000 nM
- IC50 (CDK2/Cyclin E1 complex; tested form: formate): > 5000 nM
- IC50 (A673 cells; read-out: Inhibition of Proliferation of A673 Cells (calculated IC50), tested form: formate): 200 to 5000 nM
